From paper PMC7819943, “Rice protein-binding microarrays: a tool to detect cis-acting elements near promoter regions in rice”
Some of the results follow.

target: T1, OsSMF1 (Oryza sativa, UniProt Q6ZLB0 1-436); experiment: protein-binding microarray (RPBM); PBS, 2% BSA, 51.3 ng/ul salmon testes DNA, 50 uM zinc acetate, 200 nM TF, 25 C, 1 h; high values mean tight binding; details: protein: recombinant; tags: N-terminal polyhistidine and DsRed monomer fusion (pET32a); chain copies: 2; label: CyDye5-dUTP incorporated in the synthesized complementary strand; 3' TTTTT single-stranded linker to array surface; dsDNA, one strand shown
T1 sequence: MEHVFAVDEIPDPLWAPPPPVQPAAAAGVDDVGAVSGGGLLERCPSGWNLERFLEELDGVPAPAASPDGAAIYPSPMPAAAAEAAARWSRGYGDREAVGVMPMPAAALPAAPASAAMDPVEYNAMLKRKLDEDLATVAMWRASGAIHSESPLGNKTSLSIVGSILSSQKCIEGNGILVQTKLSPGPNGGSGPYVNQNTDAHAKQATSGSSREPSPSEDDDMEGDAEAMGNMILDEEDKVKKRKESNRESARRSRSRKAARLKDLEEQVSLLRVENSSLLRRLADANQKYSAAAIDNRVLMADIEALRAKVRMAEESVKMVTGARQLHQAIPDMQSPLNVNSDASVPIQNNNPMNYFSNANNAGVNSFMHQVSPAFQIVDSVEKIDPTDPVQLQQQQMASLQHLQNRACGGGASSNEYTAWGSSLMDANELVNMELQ
Procedure, shortened: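 The binding signal is fluorescence intensity per array feature (arbitrary units). Readings came from an Axon 4000B scanner after a washed, 2% BSA-blocked, double-stranded custom Agilent array had been incubated for 1 h at 25 °C with 200 nM protein and 50 µM zinc acetate. The protein was a Ni–NTA-purified transcription factor fused N-terminally to polyhistidine and DsRed, expressed in E. coli BL21-CodonPlus.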

Sequence	binding signal
AGGCGAAATCGTGTGTAGGTGGCGCGTCATCGAGGGCGAGCGGAGTCACCTAGTGCAG	4420 fluorescence intensity (a.u.)
TTCGATTTGTACCGACATGTTTCCGTCCATATTATTCTGTCGGAGTCACCTAGTGCAG	3420 fluorescence intensity (a.u.)
CCATGCCCACTCAGCATGTCTCGTGGACACGCTGTCAAGTCGGAGTCACCTAGTGCAG	7600 fluorescence intensity (a.u.)
CCGTCCCGACTCTCGTGGTGTCATCCGCTCGTGCGGCGCACGGAGTCACCTAGTGCAG	3940 fluorescence intensity (a.u.)
GCGACTGGCTTGCCGCCGCCGTGTCGTCCCTCCATGCCGCCGGAGTCACCTAGTGCAG	3450 fluorescence intensity (a.u.)
GTGAGTTCCATAAAATGATGTCGTACAAGTGATTTTATCCCGGAGTCACCTAGTGCAG	3160 fluorescence intensity (a.u.)
ACGATTATGTTATATCATAATTCATACAGCAGAAACTTTCCGGAGTCACCTAGTGCAG	4020 fluorescence intensity (a.u.)
GCTAATCCGGGAAGAAGAAGAAGAAGAAGCAGGGATTGATCGGAGTCACCTAGTGCAG	5310 fluorescence intensity (a.u.)
CTGGTAGGATAAAACGCACGGGTGAAAACACGGAAAATGGCGGAGTCACCTAGTGCAG	30600 fluorescence intensity (a.u.)
TAATCTCTCTTTTGCTTTCTTCTGTCCCTCGGGGTGTCTCCGGAGTCACCTAGTGCAG	20900 fluorescence intensity (a.u.)
TTTTAATTCAAATGCCACCTAAGCGCCACGTCAACCCTATCGGAGTCACCTAGTGCAG	23500 fluorescence intensity (a.u.)
CCCATGAACACACACATACACATCCTACTCAATGGGCATCCGGAGTCACCTAGTGCAG	3710 fluorescence intensity (a.u.)
AGTAATTAAAATTTAAGAGGCAAAATTACGTGTGAATTTGCGGAGTCACCTAGTGCAG	4130 fluorescence intensity (a.u.)
ACATTTTCACGAGTCTTTTCACTTCCGCCCGCGCCCAAGTCGGAGTCACCTAGTGCAG	3140 fluorescence intensity (a.u.)
CAGGCGGCCGCCTCCTCCTCCGCCGCCTCCGCCGCTCCCGCGGAGTCACCTAGTGCAG	3140 fluorescence intensity (a.u.)
CGCCGCGGTGGTCGGACTTGTCGCGCGAGCTCGGGATCGACGGAGTCACCTAGTGCAG	4780 fluorescence intensity (a.u.)
GACCTCCTCGTCGATTCTTTGCGCATGCACCATCCCTGGGCGGAGTCACCTAGTGCAG	3470 fluorescence intensity (a.u.)
TCAACCGTTTTCCCAAAGCTGACGCGATGCGGTACGACCTCGGAGTCACCTAGTGCAG	5040 fluorescence intensity (a.u.)
GTTGAGCTCCCGGTATATCTTGCACAGCTCGGTGGTGCGCCGGAGTCACCTAGTGCAG	3210 fluorescence intensity (a.u.)
CGCTATTACTTTTGTACCTATATAAGTGAGGTCAGCGCCACGGAGTCACCTAGTGCAG	3220 fluorescence intensity (a.u.)
GAGATCGATGGCAGGAGTTGGGGAGAAGATGATGGTTAGCCGGAGTCACCTAGTGCAG	3540 fluorescence intensity (a.u.)

Single values from the results shown:
In binding signal, GTTGAGCTCCCGGTATATCTTGCACAGCTCGGTGGTGCGCCGGAGTCACCTAGTGCAG is entered as 3210 fluorescence intensity (a.u.)
In binding signal, TTCGATTTGTACCGACATGTTTCCGTCCATATTATTCTGTCGGAGTCACCTAGTGCAG is entered as 3420 fluorescence intensity (a.u.)

Following part

Sequence	binding signal
GGGCTCCATAATAGAGTGCCACACTAGCATGTTACGATATCGGAGTCACCTAGTGCAG	3510 fluorescence intensity (a.u.)
GCCTACCTTCTGGTTCGATCTTCTCCCGCCACGTTCTGCACGGAGTCACCTAGTGCAG	4310 fluorescence intensity (a.u.)
GATGCGCACCGCCACGCACTTCATTAATTTCATGTCTCCTCGGAGTCACCTAGTGCAG	7170 fluorescence intensity (a.u.)
AGACACCAACAAGGTTGGCAGCAAACCAGAACAAATTAACCGGAGTCACCTAGTGCAG	24700 fluorescence intensity (a.u.)
AGCGTGTCCTCCTGGTTGCTATTGACACGCTGGCAGAGCCCGGAGTCACCTAGTGCAG	7800 fluorescence intensity (a.u.)
AAATTCATGCACTTGCCACGTGCAATCCCAACTATACTGTCGGAGTCACCTAGTGCAG	4230 fluorescence intensity (a.u.)
GTTGCATGAAGACCCATTCCTTGGTGACGTGATGTTAGCACGGAGTCACCTAGTGCAG	3830 fluorescence intensity (a.u.)
CTACTGTCATGCTTCCTTGTCACATTACTACATCGTCGTTCGGAGTCACCTAGTGCAG	3970 fluorescence intensity (a.u.)
GTCCTCTACAGTACTGTCTTCTGACTTAGTGCTTTGAGTGCGGAGTCACCTAGTGCAG	3680 fluorescence intensity (a.u.)
ACAATCTCTTCAATTATATATGTGACATCATACTTTCTATCGGAGTCACCTAGTGCAG	4030 fluorescence intensity (a.u.)
AGGGGAAAGATATGTGTACGTGTATTCATAGGGGTGAGTGCGGAGTCACCTAGTGCAG	5720 fluorescence intensity (a.u.)
GGTCAGTGACTCGCGCGAACGTGGGGTTGACGCGACGTGGCGGAGTCACCTAGTGCAG	6800 fluorescence intensity (a.u.)
GCAATTCGCTCGGCAGGATTTCAACATTGCGGCCTACTGCCGGAGTCACCTAGTGCAG	27800 fluorescence intensity (a.u.)
ACGGCCACCCGCATCAACTCTTCCACTCTCTCCATTCCTACGGAGTCACCTAGTGCAG	3710 fluorescence intensity (a.u.)
CCTCTTCTGATGTGGTCACATTCTCGCGTGCTCATTTGCACGGAGTCACCTAGTGCAG	5460 fluorescence intensity (a.u.)
AATTGCTTTGTTAAACTGTACAGGTATGCTGCTGTATTTGCGGAGTCACCTAGTGCAG	3420 fluorescence intensity (a.u.)
CCCACCTCTTGCTATCCACGTCGAACGCAGGATGTGGCGGCGGAGTCACCTAGTGCAG	23900 fluorescence intensity (a.u.)
CTGTTCATTCACATGGAGACGCACACGTGCTGTGACTTGGCGGAGTCACCTAGTGCAG	3300 fluorescence intensity (a.u.)
GAGCGTGTAATACGTGTCTTACCCACAACGCCTCTCTTCACGGAGTCACCTAGTGCAG	7900 fluorescence intensity (a.u.)
ATGTAGATTCTATCTCGATTTTCACTATTACGTTTCGAAACGGAGTCACCTAGTGCAG	23700 fluorescence intensity (a.u.)
CATTCTACAACCAGGAGTCCACGTCCTTCCACACCTTTTCCGGAGTCACCTAGTGCAG	6270 fluorescence intensity (a.u.)
